# At least one compound was matched to its structure with a doubt left.
# Test system: H. pylori strain SS1
# Assay: H. pylori antigen-specific antibody response in INS-GAS mice
# Type: in vivo
# Settings: DHA 50 μM in drinking water, 8 months of infection
compound,measurement,value
"CC/C=C\C/C=C\C/C=C\C/C=C\C/C=C\C/C=C\CCC(=O)O [DHA, docosahexaenoic acid]",H. pylori antigen-specific antibody response,decrease
